# Laboratory results taken from patent US20170189504A1, “NOVEL PEPTIDES AND COMBINATION OF PEPTIDES FOR USE IN IMMUNOTHERAPY AGAINST VARIOUS CANCERS” (immatics biotechnologies GmbH, priority 2015, published 2017).
# For some of these results: Expression values are those of the mRNA of the gene that encodes the peptide; a gene is named only where it was looked up.
# What was measured:
# [1] = tested on: HLA-A*02; assay: Identification and relative LC-MS quantitation of HLA-A*02-presented tumor-associated peptides on tissue samples (presentation profiles, Tables 13A, 13B, 15, FIG. 1); design: species or system human; key to Presentation score NHL / Presentation score CLL / Presentation score BRCA / Presentation score AML / Presentation score GB / Presentation score NSCLC / Presentation score GBC_CCC / Presentation score UEC / Presentation score MEL / Presentation score OSCAR / Presentation score GC / Presentation score UBC / Presentation score OC / Presentation score RCC / Presentation score CRC / Presentation score PCA / Presentation score HCC / Presentation score PC / Presentation score SCLC: specifically presented on tumors (++++); very highly over-presented on tumors compared to a panel of normal tissues (+++); highly over-presented on tumors compared to a panel of normal tissues (++); over-presented on tumors compared to a panel of normal tissues (+); conditions: for Presentation score MEL: melanoma (N = 7) vs panel of normal tissues (N = 262); for Presentation score NHL: non-Hodgkin lymphoma (N = 18) vs panel of normal tissues (N = 262); for Presentation score NSCLC: non-small cell lung cancer (N = 90) vs panel of normal tissues (N = 262); for Peptide Presentation on cancer entities: HLA-A*02-binding tumor-associated peptides; for Presentation score OSCAR: esophageal cancer, including cancer of the gastric-esophageal junction (N = 17) vs panel of normal tissues (N = 262); for Presentation score OC: ovarian cancer (N = 20) vs panel of normal tissues (N = 262)
# [2] = tested on: source genes (mRNA); assay: Gene and exon expression of source genes, TCGA tumor samples compared with normal tissue samples (Lonsdale, 2013) (Table 17); design: species or system human; conditions: for Target coverage: over-expression category of source gene, LAML: Acute Myeloid Leukemia (N = 173); for Target coverage: over-expression category of source gene, BRCA: Breast cancer (N = 1104), cutoff more than 2-fold above highest 75% percentile of high and medium risk normal tissue samples; for Target coverage: over-expression category of source gene, ESCA: Esophageal cancer (N = 185); for Target coverage: over-expression category of source gene, GBM: Glioblastoma multiforme (N = 169); for Target coverage: over-expression category of source gene, LGG: Lower grade glioma (N = 534); for Target coverage: over-expression category of source gene, DLBC: Lymphoid neoplasm diffuse large B-cell lymphoma (N = 48); for Target coverage: over-expression category of source gene, OV: Ovarian serous cystadenocarcinoma (N = 309); for Target coverage: over-expression category of source gene, SKCM: Skin cutaneous melanoma (N = 473); for Target coverage: over-expression category of source gene, STAD: Stomach adenocarcinoma (N = 415)
# [3] = tested on: source genes (mRNA); assay: Expression profiling of source genes by in-house RNASeq of tumor and normal tissues (Table 18, FIG. 2); design: species or system human; key: very highly over-expressed in tumors compared to a panel of normal tissues (+++); highly over-expressed in tumors compared to a panel of normal tissues (++); over-expressed in tumors compared to a panel of normal tissues (+); conditions: source gene of peptide; for Expression score NHL: non-Hodgkin lymphoma (N = 10) vs panel of normal tissues
# [4] = Table 13A, cancer entities on which the peptide was found presented
# [5] = Table 13B, presentation on additional cancer entities
# [6] = cutoff more than 2-fold above highest 75% percentile of normal tissue samples
substance,measurement,setting,value
16: peptide found in ATAD2 (gene looked up) (YTLDIPVLFGV; listed as Homo sapiens) [compound 16],Presentation score CLL,"[1]; HLA-A*02 peptides, chronic lymphocytic leukemia (N = 17) vs panel of normal tissues (N = 262)",++++
same,Presentation score HCC,"[1]; HLA-A*02 peptides, hepatocellular carcinoma (N = 16) vs panel of normal tissues (N = 262)",++++
same,Presentation score MEL,[1]; HLA-A*02 peptides,++++
same,Presentation score NHL,[1]; HLA-A*02 peptides,++++
same,Presentation score NSCLC,[1]; HLA-A*02 peptides,++++
same,Peptide Presentation on cancer entities,[1]; [4],"NSCLC, HCC, CLL, MEL, NHL"
same,Peptide Presentation on cancer entities,[1]; [5],HNSCC
same,"Target coverage: over-expression category of source gene, LAML",[2]; [6],A (>=50% of tumors above the cutoff)
same,"Target coverage: over-expression category of source gene, BLCA","[2]; Bladder urothelial carcinoma (N = 408), cutoff more than 2-fold above highest 75% percentile of normal tissue samples","B (>= 20% of tumors above the cutoff, but <50%)"
same,"Target coverage: over-expression category of source gene, BRCA",[2],A (>=50% of tumors above the cutoff)
same,"Target coverage: over-expression category of source gene, CHOL","[2]; Cholangiocarcinoma (N = 36), cutoff more than 2-fold above highest 75% percentile of normal tissue samples","C (>=5% of tumors above the cutoff, but <20%)"
same,"Target coverage: over-expression category of source gene, READ","[2]; Colon and rectal adenocarcinoma (N = 167), cutoff more than 2-fold above highest 75% percentile of normal tissue samples","B (>= 20% of tumors above the cutoff, but <50%)"
same,"Target coverage: over-expression category of source gene, COAD","[2]; Colon and rectal adenocarcinoma (N = 462), cutoff more than 2-fold above highest 75% percentile of normal tissue samples","B (>= 20% of tumors above the cutoff, but <50%)"
same,"Target coverage: over-expression category of source gene, ESCA",[2]; [6],A (>=50% of tumors above the cutoff)
same,"Target coverage: over-expression category of source gene, GBM",[2]; [6],"C (>=5% of tumors above the cutoff, but <20%)"
same,"Target coverage: over-expression category of source gene, LIHC","[2]; Liver hepatocellular carcinoma (N = 374), cutoff more than 2-fold above highest 75% percentile of normal tissue samples","C (>=5% of tumors above the cutoff, but <20%)"
same,"Target coverage: over-expression category of source gene, LGG",[2]; [6],"C (>=5% of tumors above the cutoff, but <20%)"
same,"Target coverage: over-expression category of source gene, LUAD","[2]; Lung adenocarcinoma (N = 517), cutoff more than 2-fold above highest 75% percentile of normal tissue samples","B (>= 20% of tumors above the cutoff, but <50%)"
same,"Target coverage: over-expression category of source gene, LUSC","[2]; Lung squamous cell carcinoma (N = 503), cutoff more than 2-fold above highest 75% percentile of normal tissue samples",A (>=50% of tumors above the cutoff)
same,"Target coverage: over-expression category of source gene, DLBC",[2]; [6],"B (>= 20% of tumors above the cutoff, but <50%)"
same,"Target coverage: over-expression category of source gene, OV",[2]; [6],A (>=50% of tumors above the cutoff)
same,"Target coverage: over-expression category of source gene, PRAD","[2]; Prostate adenocarcinoma (N = 498), cutoff more than 2-fold above highest 75% percentile of normal tissue samples","C (>=5% of tumors above the cutoff, but <20%)"
same,"Target coverage: over-expression category of source gene, SKCM",[2]; [6],"B (>= 20% of tumors above the cutoff, but <50%)"
same,"Target coverage: over-expression category of source gene, STAD",[2]; [6],A (>=50% of tumors above the cutoff)
same,"Target coverage: over-expression category of source gene, UCEC","[2]; Uterine corpus endometrial carcinoma (N = 546), cutoff more than 2-fold above highest 75% percentile of normal tissue samples","C (>=5% of tumors above the cutoff, but <20%)"
same,Expression score BRCA,[3]; BRCA tumors vs panel of normal tissues,+
same,Expression score CRC,[3]; colorectal cancer (N = 20) vs panel of normal tissues,+
same,Expression score OSCAR,[3]; esophageal cancer incl. gastric-esophageal junction (N = 11) vs panel of normal tissues,+
same,Expression score GBC_CCC,[3]; gallbladder adenocarcinoma and cholangiocarcinoma (N = 3) vs panel of normal tissues,+
same,Expression score NHL,[3],+
same,Expression score NSCLC,[3]; non-small cell lung cancer (N = 11) vs panel of normal tissues,+
same,Expression score OC,[3]; ovarian cancer (N = 12) vs panel of normal tissues,++
same,Expression score SCLC,[3]; small cell lung cancer (N = 10) vs panel of normal tissues,+++
17: peptide found in KMT2A (gene looked up) (AVFPDDMPTL; listed as Homo sapiens) [compound 17],Presentation score OSCAR,[1]; HLA-A*02 peptides,++++
same,Presentation score GC,"[1]; HLA-A*02 peptides, gastric cancer (N = 29) vs panel of normal tissues (N = 262)",++++
same,Presentation score NHL,[1]; HLA-A*02 peptides,++++
same,Presentation score NSCLC,[1]; HLA-A*02 peptides,++++
same,Presentation score OC,[1]; HLA-A*02 peptides,++++
same,Peptide Presentation on cancer entities,[1]; [4],"GC, NSCLC, OSCAR, OC, NHL"
same,"Target coverage: over-expression category of source gene, LAML",[2]; [6],A (>=50% of tumors above the cutoff)
same,Expression score CLL,[3]; chronic lymphocytic leukemia (N = 10) vs panel of normal tissues,+
19: peptide found in BMP2K (gene looked up) (SISDNVWEV; listed as Homo sapiens) [compound 19],Presentation score BRCA,"[1]; HLA-A*02 peptides, breast cancer (N = 17) vs panel of normal tissues (N = 262)",++++
same,Presentation score OSCAR,[1]; HLA-A*02 peptides,++++
same,Presentation score GB,"[1]; HLA-A*02 peptides, glioblastoma (N = 41) vs panel of normal tissues (N = 262)",++++
same,Presentation score MEL,[1]; HLA-A*02 peptides,++++
same,Presentation score NHL,[1]; HLA-A*02 peptides,++++
same,Presentation score OC,[1]; HLA-A*02 peptides,++++
same,Presentation score UEC,"[1]; HLA-A*02 peptides, uterine cancer (N = 15) vs panel of normal tissues (N = 262)",++++
same,Peptide Presentation on cancer entities,[1]; [4],"GB, OSCAR, OC, UEC, BRCA, MEL, NHL"
same,Peptide Presentation on cancer entities,[1]; [5],HNSCC
same,"Target coverage: over-expression category of source gene, LAML",[2]; [6],A (>=50% of tumors above the cutoff)
same,"Target coverage: over-expression category of source gene, BRCA",[2],"C (>=5% of tumors above the cutoff, but <20%)"
same,"Target coverage: over-expression category of source gene, KIRC","[2]; Clear cell kidney carcinoma (N = 534), cutoff more than 2-fold above highest 75% percentile of normal tissue samples","B (>= 20% of tumors above the cutoff, but <50%)"
same,"Target coverage: over-expression category of source gene, ESCA",[2]; [6],"B (>= 20% of tumors above the cutoff, but <50%)"
same,"Target coverage: over-expression category of source gene, GBM",[2]; [6],"C (>=5% of tumors above the cutoff, but <20%)"
same,"Target coverage: over-expression category of source gene, KICH","[2]; Kidney chromophobe (N = 66), cutoff more than 2-fold above highest 75% percentile of normal tissue samples","C (>=5% of tumors above the cutoff, but <20%)"
same,"Target coverage: over-expression category of source gene, LGG",[2]; [6],"C (>=5% of tumors above the cutoff, but <20%)"
same,"Target coverage: over-expression category of source gene, DLBC",[2]; [6],"B (>= 20% of tumors above the cutoff, but <50%)"
same,"Target coverage: over-expression category of source gene, OV",[2]; [6],"C (>=5% of tumors above the cutoff, but <20%)"
same,"Target coverage: over-expression category of source gene, KIRP","[2]; Papillary kidney carcinoma (N = 291), cutoff more than 2-fold above highest 75% percentile of normal tissue samples","C (>=5% of tumors above the cutoff, but <20%)"
same,"Target coverage: over-expression category of source gene, SKCM",[2]; [6],"C (>=5% of tumors above the cutoff, but <20%)"
same,"Target coverage: over-expression category of source gene, STAD",[2]; [6],"B (>= 20% of tumors above the cutoff, but <50%)"
same,Expression score GB,[3]; glioblastoma (N = 24) vs panel of normal tissues,+
same,Expression score NHL,[3],+
